According to publication PMC5702460:
No constants are given. Whether binding was seen depends on the method and setting. Binding seen in cells or lysates may run through a third protein. A yes stands for co-enrichment or nearness to the bait. Other partners may have been found.

Protein sequences, listed by entry. Tags and fused reporters are not part of them. Residues count along the entry.
UniProt P06733: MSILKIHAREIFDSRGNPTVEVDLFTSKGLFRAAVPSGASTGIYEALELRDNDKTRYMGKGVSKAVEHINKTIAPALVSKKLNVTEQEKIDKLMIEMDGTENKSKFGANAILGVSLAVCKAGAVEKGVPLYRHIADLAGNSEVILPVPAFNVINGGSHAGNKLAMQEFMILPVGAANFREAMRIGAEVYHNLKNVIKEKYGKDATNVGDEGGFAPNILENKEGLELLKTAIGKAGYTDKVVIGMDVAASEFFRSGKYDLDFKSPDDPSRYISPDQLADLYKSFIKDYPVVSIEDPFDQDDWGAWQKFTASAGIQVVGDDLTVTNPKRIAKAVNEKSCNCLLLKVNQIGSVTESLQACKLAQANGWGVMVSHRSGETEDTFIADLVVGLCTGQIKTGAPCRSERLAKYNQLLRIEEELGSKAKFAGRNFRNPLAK
UniProt P07355: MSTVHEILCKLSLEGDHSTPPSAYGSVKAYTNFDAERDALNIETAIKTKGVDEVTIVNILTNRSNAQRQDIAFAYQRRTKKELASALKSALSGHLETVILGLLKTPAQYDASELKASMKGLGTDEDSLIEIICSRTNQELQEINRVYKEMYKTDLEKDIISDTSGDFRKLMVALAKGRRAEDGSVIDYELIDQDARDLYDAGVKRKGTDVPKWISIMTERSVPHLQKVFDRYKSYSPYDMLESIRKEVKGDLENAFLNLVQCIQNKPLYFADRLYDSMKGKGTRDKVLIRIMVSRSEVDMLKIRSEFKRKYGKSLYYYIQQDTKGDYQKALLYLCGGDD
UniProt P27824, residues 21-592: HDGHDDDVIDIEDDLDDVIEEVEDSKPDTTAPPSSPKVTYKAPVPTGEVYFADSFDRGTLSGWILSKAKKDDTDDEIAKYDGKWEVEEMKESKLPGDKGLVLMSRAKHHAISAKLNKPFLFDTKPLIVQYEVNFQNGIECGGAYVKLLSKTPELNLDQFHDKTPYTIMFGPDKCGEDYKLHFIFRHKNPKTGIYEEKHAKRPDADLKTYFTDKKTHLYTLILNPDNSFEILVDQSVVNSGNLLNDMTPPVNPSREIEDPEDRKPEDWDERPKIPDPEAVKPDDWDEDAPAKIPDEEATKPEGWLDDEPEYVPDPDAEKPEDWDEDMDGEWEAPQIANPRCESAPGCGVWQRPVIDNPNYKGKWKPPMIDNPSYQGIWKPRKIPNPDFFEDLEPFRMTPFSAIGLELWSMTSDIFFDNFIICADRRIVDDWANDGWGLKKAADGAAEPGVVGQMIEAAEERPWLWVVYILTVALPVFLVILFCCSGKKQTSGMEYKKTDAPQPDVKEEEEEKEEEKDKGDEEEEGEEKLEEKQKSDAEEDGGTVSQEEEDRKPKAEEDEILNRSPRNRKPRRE

B1: Fructose-bisphosphate aldolase A (protein, UniProt P04075 1-364)
chain: MPYQYPALTPEQKKELSDIAHRIVAPGKGILAADESTGSIAKRLQSIGTENTEENRRFYRQLLLTADDRVNPCIGGVILFHETLYQKADDGRPFPQVIKSKGGVVGIKVDKGVVPLAGTNGETTTQGLDGLSERCAQYKKDGADFAKWRCVLKIGEHTPSALAIMENANVLARYASICQQNGIVPIVEPEILPDGDHDLKRCQYVTEKVLAAVYKALSDHHIYLEGTLLKPNMVTPGHACTQKFSHEEIAMATVTALRRTVPPAVTGITFLSGGQSEEEASINLNAINKCPLLKPWALTFSYGRALQASALKAWGGKKENLKAAQEEYVKRALANSLACQGKYTPSGQAGAAASESLFVSNHAY
B2: F-box only protein 2 (protein, UniProt Q9UK22 1-296)
chain: MDGDGDPESVGQPEEASPEEQPEEASAEEERPEDQQEEEAAAAAAYLDELPEPLLLRVLAALPAAELVQACRLVCLRWKELVDGAPLWLLKCQQEGLVPEGGVEEERDHWQQFYFLSKRRRNLLRNPCGEEDLEGWCDVEHGGDGWRVEELPGDSGVEFTHDESVKKYFASSFEWCRKAQVIDLQAEGYWEELLDTTQPAIVVKDWYSGRSDAGCLYELTVKLLSEHENVLAEFSSGQVAVPQDSDGGGWMEISHTFTDYGPGVRFVRFEHGGQDSVYWKGWFGARVTNSSVWVEP
B3: Malate dehydrogenase, cytoplasmic (protein, UniProt P40925 1-334)
chain: MSEPIRVLVTGAAGQIAYSLLYSIGNGSVFGKDQPIILVLLDITPMMGVLDGVLMELQDCALPLLKDVIATDKEDVAFKDLDVAILVGSMPRREGMERKDLLKANVKIFKSQGAALDKYAKKSVKVIVVGNPANTNCLTASKSAPSIPKENFSCLTRLDHNRAKAQIALKLGVTANDVKNVIIWGNHSSTQYPDVNHAKVKLQGKEVGVYEALKDDSWLKGEFVTTVQQRGAAVIKARKLSSAMSAAKAICDHVRDIWFGTPEGEFVSMGVISDGNSYGVPDDLLYSFPVVIKNKTWKFVEGLPINDFSREKMDLTAKELTEEKESAFEFLSSA
B4: Protein disulfide-isomerase A4 (protein, UniProt P13667 21-645)
chain: VAGAEGPDEDSSNRENAIEDEEEEEEEDDDEEEDDLEVKEENGVLVLNDANFDNFVADKDTVLLEFYAPWCGHCKQFAPEYEKIANILKDKDPPIPVAKIDATSASVLASRFDVSGYPTIKILKKGQAVDYEGSRTQEEIVAKVREVSQPDWTPPPEVTLVLTKENFDEVVNDADIILVEFYAPWCGHCKKLAPEYEKAAKELSKRSPPIPLAKVDATAETDLAKRFDVSGYPTLKIFRKGRPYDYNGPREKYGIVDYMIEQSGPPSKEILTLKQVQEFLKDGDDVIIIGVFKGESDPAYQQYQDAANNLREDYKFHHTFSTEIAKFLKVSQGQLVVMQPEKFQSKYEPRSHMMDVQGSTQDSAIKDFVLKYALPLVGHRKVSNDAKRYTRRPLVVVYYSVDFSFDYRAATQFWRSKVLEVAKDFPEYTFAIADEEDYAGEVKDLGLSESGEDVNAAILDESGKKFAMEPEEFDSDTLREFVTAFKKGKLKPVIKSQPVPKNNKGPVKVVVGKTFDSIVMDPKKDVLIEFYAPWCGHCKQLEPVYNSLAKKYKGQKGLVIAKMDATANDVPSDRYKVEGFPTIYFAPSGDKKNPVKFEGGDRDLEHLSKFIEEHATKLSRTKEEL
B5: Probable serine carboxypeptidase CPVL (protein, UniProt Q9H3G5 23-476)
chain: LFRSLYRSVSMPPKGDSGQPLFLTPYIEAGKIQKGRELSLVGPFPGLNMKSYAGFLTVNKTYNSNLFFWFFPAQIQPEDAPVVLWLQGGPGGSSMFGLFVEHGPYVVTSNMTLRDRDFPWTTTLSMLYIDNPVGTGFSFTDDTHGYAVNEDDVARDLYSALIQFFQIFPEYKNNDFYVTGESYAGKYVPAIAHLIHSLNPVREVKINLNGIAIGDGYSDPESIIGGYAEFLYQIGLLDEKQKKYFQKQCHECIEHIRKQNWFEAFEILDKLLDGDLTSDPSYFQNVTGCSNYYNFLRCTEPEDQLYYVKFLSLPEVRQAIHVGNQTFNDGTIVEKYLREDTVQSVKPWLTEIMNNYKVLIYNGQLDIIVAAALTERSLMGMDWKGSQEYKKAEKKVWKIFKSDSEVAGYIRQAGDFHQVIIRGGGHILPYDQPLRAFDMINRFIYGKGWDPYVG
B6: Transaldolase (protein, UniProt P37837 1-337)
chain: MSSSPVKRQRMESALDQLKQFTTVVADTGDFHAIDEYKPQDATTNPSLILAAAQMPAYQELVEEAIAYGRKLGGSQEDQIKNAIDKLFVLFGAEILKKIPGRVSTEVDARLSFDKDAMVARARRLIELYKEAGISKDRILIKLSSTWEGIQAGKELEEQHGIHCNMTLLFSFAQAVACAEAGVTLISPFVGRILDWHVANTDKKSYEPLEDPGVKSVTKIYNYYKKFSYKTIVMGASFRNTGEIKALAGCDFLTISPKLLGELLQDNAKLVPVLSAKAAQASDLEKIHLDEKSFRWLHNEDQMAVEKLSDGIRKFAADAVKLERMLTERMFNAENGK
B7: LIM and SH3 domain protein 1 (protein, UniProt Q14847 1-261)
chain: MNPNCARCGKIVYPTEKVNCLDKFWHKACFHCETCKMTLNMKNYKGYEKKPYCNAHYPKQSFTMVADTPENLRLKQQSELQSQVRYKEEFEKNKGKGFSVVADTPELQRIKKTQDQISNIKYHEEFEKSRMGPSGGEGMEPERRDSQDGSSYRRPLEQQQPHHIPTSAPVYQQPQQQPVAQSYGGYKEPAAPVSIQRSAPGGGGKRYRAVYDYSAADEDEVSFQDGDTIVNVQQIDDGWMYGTVERTGDTGMLPANYVEAI
B8: Peroxiredoxin-1 (protein, UniProt Q06830 1-199)
chain: MSSGNAKIGHPAPNFKATAVMPDGQFKDISLSDYKGKYVVFFFYPLDFTFVCPTEIIAFSDRAEEFKKLNCQVIGASVDSHFCHLAWVNTPKKQGGLGPMNIPLVSDPKRTIAQDYGVLKADEGISFRGLFIIDDKGILRQITVNDLPVGRSVDETLRLVQAFQFTDKHGEVCPAGWKPGSDTIKPDVQKSKEYFSKQK

Molecular target: T1, Hazara virus nucleocapsid protein (N) (Hazara virus strain JC280) (UniProt P27318)
T1 sequence: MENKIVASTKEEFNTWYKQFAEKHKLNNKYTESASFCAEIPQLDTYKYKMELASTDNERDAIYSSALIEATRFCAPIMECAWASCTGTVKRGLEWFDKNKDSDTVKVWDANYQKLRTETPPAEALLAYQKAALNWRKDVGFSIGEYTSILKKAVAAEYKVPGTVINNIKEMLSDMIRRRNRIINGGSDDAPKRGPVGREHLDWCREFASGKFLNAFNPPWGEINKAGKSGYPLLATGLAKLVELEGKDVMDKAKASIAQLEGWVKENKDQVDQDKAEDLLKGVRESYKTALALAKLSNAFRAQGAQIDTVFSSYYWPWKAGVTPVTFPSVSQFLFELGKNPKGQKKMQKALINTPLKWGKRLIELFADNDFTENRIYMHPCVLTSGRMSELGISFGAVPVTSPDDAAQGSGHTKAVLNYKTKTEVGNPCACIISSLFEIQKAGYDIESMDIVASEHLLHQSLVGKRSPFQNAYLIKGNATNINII
Assay: affinity purification with mass spectrometry

Row | Molecule | binding
1 | Alpha-enolase (from UniProt P06733 1-434) | binds
2 | Stress-induced-phosphoprotein 1 (from UniProt P31948 1-543) | binds
3 | Annexin A2 (from UniProt P07355 1-339) | binds
4 | Calnexin (from UniProt P27824 21-592) | binds
5 | Ryanodine receptor 3 (from UniProt Q15413 1-4870) | binds
6 | B1 | binds
7 | B2 | binds
8 | B3 | binds
9 | B4 | binds
10 | B5 | binds
11 | B6 | binds
12 | B7 | binds
13 | B8 | binds
